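Human melanoma cells were exposed to a pair of drugs for 72 h in 1,536-well plates and read by automated microscopy after fixing and staining. The read-out is the fraction of cleaved-PARP-positive nuclei, in % of that fraction in the DMSO control; 200 means twice the control level of this apoptosis marker. Every drug was used at one fixed concentration, the higher of two screened. The file gives one value for each pair and line, without errors, so small differences may be noise. The marker varies much from line to line, for technical or biological reasons.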 An unselected part of the screen is shown. An entry leaves out what has no value listed here.

Drugs:
STA-4783: CN(NC(=O)CC(=O)NN(C)C(=S)c1ccccc1)C(=S)c1ccccc1 at 30 nM
pazopanib: Cc1ccc(Nc2nccc(N(C)c3ccc4c(C)n(C)nc4c3)n2)cc1S(N)(=O)=O at 2000 nM
tozasertib: Cc1cc(Nc2cc(N3CCN(C)CC3)nc(Sc3ccc(NC(=O)C4CC4)cc3)n2)n[nH]1 at 30 nM
GW441756: Cn1cc(/C=C2\C(=O)Nc3cccnc32)c2ccccc21 at 2000 nM
NVP-TAE684: COc1cc(N2CCC(N3CCN(C)CC3)CC2)ccc1Nc1ncc(Cl)c(Nc2ccccc2S(=O)(=O)C(C)C)n1 at 400 nM
selumetinib: Cn1cnc2c(F)c(Nc3ccc(Br)cc3Cl)c(C(=O)NOCCO)cc21 at 75 nM
GSK650394: O=C(O)c1ccc(-c2c[nH]c3ncc(-c4ccccc4)cc23)cc1C1CCCC1 at 800 nM
crizotinib: C[C@@H](Oc1cc(-c2cnn(C3CCNCC3)c2)cnc1N)c1c(Cl)ccc(F)c1Cl at 1000 nM
tamatinib: COc1cc(Nc2ncc(F)c(Nc3ccc4c(n3)NC(=O)C(C)(C)O4)n2)cc(OC)c1OC at 2000 nM
bortezomib: CC(C)C[C@H](NC(=O)[C@H](Cc1ccccc1)NC(=O)c1cnccn1)B(O)O at 5 nM
ABT-263: CC1(C)CCC(c2ccc(Cl)cc2)=C(CN2CCN(c3ccc(C(=O)NS(=O)(=O)c4ccc(N[C@H](CCN5CCOCC5)CSc5ccccc5)c(S(=O)(=O)C(F)(F)F)c4)cc3)CC2)C1 at 2000 nM
dorsomorphin: c1cc(-c2cnn3cc(-c4ccc(OCCN5CCCCC5)cc4)cnc23)ccn1 at 2000 nM

{"drugs": "crizotinib + selumetinib", "IPC-298": 89.3, "COLO 800": 67.7, "MEL-HO": 106, "A101D": 59.8, "WM3526": 596, "MeWo": 253, "MZ2-MEL": 803}
{"drugs": "bortezomib + tozasertib", "IPC-298": 7560, "COLO 800": 79.7, "MEL-HO": 123, "A101D": 370, "WM3526": 5810, "MeWo": 3620, "MZ2-MEL": 23300}
{"drugs": "GSK650394 + dorsomorphin", "IPC-298": 76.2, "COLO 800": 62.1, "MEL-HO": 190, "A101D": 109, "WM3526": 124, "MeWo": 98.8, "MZ2-MEL": 71.5}
{"drugs": "GSK650394 + STA-4783", "IPC-298": 118, "COLO 800": 445, "MEL-HO": 211, "A101D": 229, "WM3526": 138, "MeWo": 917, "MZ2-MEL": 187}
{"drugs": "dorsomorphin + STA-4783", "IPC-298": 30.7, "COLO 800": 114, "MEL-HO": 56.8, "A101D": 67.4, "WM3526": 76.0, "MeWo": 387}
{"drugs": "GW441756 + tamatinib", "IPC-298": 339, "COLO 800": 278, "MEL-HO": 54.9, "A101D": 341, "WM3526": 30.9, "MeWo": 134, "MZ2-MEL": 116}
{"drugs": "NVP-TAE684 + pazopanib", "IPC-298": 119, "COLO 800": 89.1, "MEL-HO": 93.7, "A101D": 50.1, "WM3526": 163, "MeWo": 198, "MZ2-MEL": 115}
{"drugs": "STA-4783 + NVP-TAE684", "IPC-298": 189, "COLO 800": 355, "MEL-HO": 119, "A101D": 168, "WM3526": 119, "MeWo": 2940, "MZ2-MEL": 89.5}
{"drugs": "pazopanib + tozasertib", "IPC-298": 146, "COLO 800": 161, "MEL-HO": 83.4, "A101D": 89.1, "WM3526": 163, "MeWo": 57.8, "MZ2-MEL": 159}
{"drugs": "GW441756 + pazopanib", "IPC-298": 199, "COLO 800": 121, "MEL-HO": 84.4, "A101D": 252, "WM3526": 112, "MeWo": 71.5, "MZ2-MEL": 119}
{"drugs": "GW441756 + NVP-TAE684", "IPC-298": 21.5, "COLO 800": 178, "MEL-HO": 159, "A101D": 125, "WM3526": 105, "MeWo": 98.2, "MZ2-MEL": 37.1}
{"drugs": "selumetinib + bortezomib", "IPC-298": 5200, "COLO 800": 113, "MEL-HO": 234, "A101D": 566, "WM3526": 4150, "MeWo": 5080, "MZ2-MEL": 15600}
{"drugs": "tamatinib + STA-4783", "IPC-298": 184, "COLO 800": 653, "MEL-HO": 215, "A101D": 1730, "WM3526": 96.5, "MeWo": 2880, "MZ2-MEL": 221}
{"drugs": "selumetinib + STA-4783", "IPC-298": 265, "COLO 800": 504, "MEL-HO": 154, "A101D": 243, "WM3526": 292, "MeWo": 1010, "MZ2-MEL": 552}
{"drugs": "GSK650394 + NVP-TAE684", "IPC-298": 119, "COLO 800": 71.8, "MEL-HO": 271, "A101D": 249, "WM3526": 206, "MeWo": 111, "MZ2-MEL": 97.6}
{"drugs": "crizotinib + pazopanib", "IPC-298": 96.4, "COLO 800": 143, "MEL-HO": 41.3, "A101D": 76.4, "WM3526": 140, "MeWo": 59.7, "MZ2-MEL": 40.2}
{"drugs": "bortezomib + ABT-263", "IPC-298": 3010, "COLO 800": 189, "MEL-HO": 304, "A101D": 1730, "WM3526": 3610, "MeWo": 3170, "MZ2-MEL": 15000}
{"drugs": "tamatinib + GSK650394", "IPC-298": 49.0, "COLO 800": 192, "MEL-HO": 58.5, "A101D": 270, "WM3526": 253, "MeWo": 140, "MZ2-MEL": 82.0}
{"drugs": "tozasertib + ABT-263", "IPC-298": 258, "COLO 800": 359, "MEL-HO": 308, "A101D": 153, "WM3526": 222, "MeWo": 372, "MZ2-MEL": 1900}
{"drugs": "tozasertib + GW441756", "IPC-298": 112, "COLO 800": 396, "MEL-HO": 122, "A101D": 45.8, "WM3526": 131, "MeWo": 307, "MZ2-MEL": 297}
{"drugs": "tamatinib + NVP-TAE684", "IPC-298": 62.4, "COLO 800": 37.4, "MEL-HO": 148, "A101D": 230, "WM3526": 170, "MeWo": 123, "MZ2-MEL": 323}
{"drugs": "selumetinib + NVP-TAE684", "IPC-298": 154, "COLO 800": 133, "MEL-HO": 108, "A101D": 444, "WM3526": 335, "MeWo": 201}
{"drugs": "tozasertib + dorsomorphin", "IPC-298": 50.0, "COLO 800": 81.1, "MEL-HO": 199, "A101D": 45.1, "WM3526": 82.2, "MeWo": 159, "MZ2-MEL": 66.7}
{"drugs": "tozasertib + STA-4783", "IPC-298": 99.2, "COLO 800": 94.8, "MEL-HO": 77.2, "A101D": 231, "WM3526": 142, "MeWo": 805, "MZ2-MEL": 126}
{"drugs": "pazopanib + dorsomorphin", "IPC-298": 346, "COLO 800": 72.8, "MEL-HO": 96.6, "A101D": 84.3, "WM3526": 133, "MeWo": 59.1, "MZ2-MEL": 78.3}
{"drugs": "bortezomib + NVP-TAE684", "IPC-298": 783, "COLO 800": 155, "MEL-HO": 169, "A101D": 403, "WM3526": 1340, "MeWo": 2790, "MZ2-MEL": 12100}
{"drugs": "STA-4783 + crizotinib", "IPC-298": 261, "COLO 800": 210, "MEL-HO": 144, "A101D": 138, "WM3526": 166, "MeWo": 1300, "MZ2-MEL": 90.3}
{"drugs": "ABT-263 + pazopanib", "IPC-298": 239, "COLO 800": 260, "MEL-HO": 143, "A101D": 135, "WM3526": 484, "MeWo": 129, "MZ2-MEL": 169}
{"drugs": "crizotinib + NVP-TAE684", "IPC-298": 35.3, "COLO 800": 271, "MEL-HO": 81.0, "A101D": 45.6, "WM3526": 135, "MeWo": 101, "MZ2-MEL": 56.3}
{"drugs": "GSK650394 + crizotinib", "IPC-298": 188, "COLO 800": 63.8, "MEL-HO": 106, "A101D": 58.2, "WM3526": 404, "MeWo": 203, "MZ2-MEL": 181}
{"drugs": "STA-4783 + pazopanib", "IPC-298": 42.4, "COLO 800": 381, "MEL-HO": 79.7, "A101D": 113, "WM3526": 77.3, "MeWo": 290, "MZ2-MEL": 113}
{"drugs": "selumetinib + GSK650394", "IPC-298": 104, "COLO 800": 12.9, "MEL-HO": 178, "A101D": 45.2, "WM3526": 179, "MeWo": 65.6, "MZ2-MEL": 274}
{"drugs": "GW441756 + dorsomorphin", "IPC-298": 135, "COLO 800": 272, "MEL-HO": 144, "A101D": 62.6, "WM3526": 152, "MeWo": 117, "MZ2-MEL": 107}
{"drugs": "tamatinib + pazopanib", "IPC-298": 208, "COLO 800": 125, "MEL-HO": 172, "A101D": 223, "WM3526": 259, "MeWo": 126, "MZ2-MEL": 194}
{"drugs": "crizotinib + bortezomib", "IPC-298": 632, "COLO 800": 92.0, "MEL-HO": 510, "A101D": 537, "WM3526": 3650, "MeWo": 2450, "MZ2-MEL": 12800}

Some entries from above, unchanged:

| Drugs | IPC-298 | COLO 800 | MEL-HO | A101D | WM3526 | MeWo | MZ2-MEL |
|---|---|---|---|---|---|---|---|
| tozasertib + ABT-263 | 258 | 359 | 308 | 153 | 222 | 372 | 1900 |
| bortezomib + ABT-263 | 3010 | 189 | 304 | 1730 | 3610 | 3170 | 15000 |
| GSK650394 + STA-4783 | 118 | 445 | 211 | 229 | 138 | 917 | 187 |
| pazopanib + dorsomorphin | 346 | 72.8 | 96.6 | 84.3 | 133 | 59.1 | 78.3 |

Source: doi:10.1371/journal.pone.0140310, primary screening data, rounded.